No constants are given. Whether binding was seen depends on the method and setting. Binding calls can cover weak binding; strength is not graded here. For some of these results: Sequences can lack the tags named with a protein.
B1: NOVA1 positive clone 42-2 (residues 144-507) from the human brain cDNA library (domain or fragment, UniProt P51513-4 144-507)
chain: PDRIKQTLPSSPTTTKSSPSDPMTTSRANQVKIIVPNSTAGLIIGKGGATVKAVMEQSGAWVQLSQKPDGINLQERVVTVSGEPEQNRKAVELIIQKIQEDPQSGSCLNISYANVTGPVANSNPTGSPYANTAEVLPTAAAAAGLLGHANLAGVAAFPAVLSGFTGNDLVAITSALNTLASYGYNLNTLGLGLSQAAATGALAAAAASANPAAAAANLLATYASEASASGSTAGGTAGTFALGSLAAATAATNGYFGAASPLAASAILGTEKSTDGSKDVVEIAVPENLVGAILGKGGKTLVEYQELTGARIQISKKGEFVPGTRNRKVTITGTPAATQAAQYLITQRITYEQGVRAANPQKVG
B2: NOVA1 fragment N3 (amino acids 341-507), yeast two-hybrid fusion (domain or fragment, UniProt P51513-4 341-507)
chain: ATGALAAAAASANPAAAAANLLATYASEASASGSTAGGTAGTFALGSLAAATAATNGYFGAASPLAASAILGTEKSTDGSKDVVEIAVPENLVGAILGKGGKTLVEYQELTGARIQISKKGEFVPGTRNRKVTITGTPAATQAAQYLITQRITYEQGVRAANPQKVG
B3: NOVA1 fragment N1 (amino acids 1-169), yeast two-hybrid fusion (domain or fragment, UniProt P51513-4 1-169)
chain: MMAAAPIQQNGTHTGVPIDLDPPDSRKRPLEAPPEAGSTKRTNTGEDGQYFLKVLIPSYAAGSIIGKGGQTIVQLQKETGATIKLSKSKDFYPGTTERVCLIQGTVEALNAVHGFIAEKIREMPQNVAKTEPVSILQPQTTVNPDRIKQTLPSSPTTTKSSPSDPMTTS
B4: NOVA1 fragment N2 (amino acids 170-340), yeast two-hybrid fusion (domain or fragment, UniProt P51513-4 170-340)
chain: RANQVKIIVPNSTAGLIIGKGGATVKAVMEQSGAWVQLSQKPDGINLQERVVTVSGEPEQNRKAVELIIQKIQEDPQSGSCLNISYANVTGPVANSNPTGSPYANTAEVLPTAAAAAGLLGHANLAGVAAFPAVLSGFTGNDLVAITSALNTLASYGYNLNTLGLGLSQAA

Key:
[1] = target: proline-arginine dipeptide repeat protein PR50, yeast two-hybrid fusion; assay: two-hybrid; Matchmaker GAL4 library screen: PR50 in pGBKT7 (AH109) as bait, human brain cDNA library in pGADT7 (Y187) as prey, mating; blue diploids on SD/-Ade/-His/-Leu/-Trp/X-alpha-gal
[2] = target: proline-arginine dipeptide repeat protein PR50, yeast two-hybrid fusion; assay: two-hybrid; Matchmaker GAL4 assay of pairs: PR50 in pGBKT7 (AH109), full-length NOVA1 or its fragments in pGADT7 (Y187); also with the vectors exchanged

Row | binding [1] | binding [2] | Binder
1 | binds | – | B1
2 | – | binds | B2
3 | – | no binding | B3
4 | – | no binding | B4

Reference: PMC10605128
